Among the data in US20030125523A1 (VEGENICS, published 2003) are binding values, retold here.

Results are given in words; binding and its absence hold for the method and conditions named. Binding seen in cells or lysates may run through a third protein. Binding calls can cover weak binding; strength is not graded here.

The target in the experiment is soluble myc-tagged NP-1 (extracellular domain of NP-1 with a C-terminal myc tag) (Mus musculus (Mouse)). Kind of experiment: pull-down of growth factor with NP-1-myc and anti-myc antibody (FIG. 13b).

B1: mouse VEGF-B167 (ligand, UniProt P49766-2 22-188, looked up)
chain: PVSQFDGPSHQKKVVPWIDVYARATCQPREVVVPLSMELMGNVVKQLVPSCVTVQRCGGCCPDDGLECVPTGQHQVRMQILMIQYPSSQLGEMSLEEHSQCECRPKKKESAVKPDSPRILCPPCTQRRQRPDPRTCRCRCRRRRFLHCQGRGLELNPDTCRCRKPRK
notes: 35S metabolically labelled, from conditioned medium of transfected cells; also called mVEGF-B167
Consider B1, for which the binding entry was “binds”.
